Laboratory results from publication PMC10356794.
Results are given in words; binding and its absence hold for the method and conditions named. Binding seen in cells or lysates may run through a third protein. Here binding means that the protein was enriched with, or labelled near, the bait; the list need not be complete. Tags and fused reporters may be left off the sequences shown.

Experiments:
[1] = molecular target: transferrin receptor protein 1 (Tfr1), endogenous in C3H10T1/2-derived adipocytes (mouse (endogenous in C3H10T1/2)) (UniProt Q62351); assay: proximity labelling; BioID as above, read by immunoblot of the streptavidin pulldown of membrane-associated proteins; controls BirA* alone and secreted Sp-BirA*-flag
[2] = molecular target: T1, P2x purinoceptor 4, endogenous in C3H10T1/2-derived adipocytes (mouse (endogenous in C3H10T1/2)) (UniProt Q9JJX6); assay: proximity labelling; BioID: conditioned medium of HEK293T cells with Musclin-BirA* (control BirA*) plus 80 uM biotin on fully differentiated C3H10T1/2 adipocytes for 24 h; membrane-associated proteins pulled down with streptavidin agarose at 4 C overnight; differential gel bands identified by mass spectrometry
T1 sequence: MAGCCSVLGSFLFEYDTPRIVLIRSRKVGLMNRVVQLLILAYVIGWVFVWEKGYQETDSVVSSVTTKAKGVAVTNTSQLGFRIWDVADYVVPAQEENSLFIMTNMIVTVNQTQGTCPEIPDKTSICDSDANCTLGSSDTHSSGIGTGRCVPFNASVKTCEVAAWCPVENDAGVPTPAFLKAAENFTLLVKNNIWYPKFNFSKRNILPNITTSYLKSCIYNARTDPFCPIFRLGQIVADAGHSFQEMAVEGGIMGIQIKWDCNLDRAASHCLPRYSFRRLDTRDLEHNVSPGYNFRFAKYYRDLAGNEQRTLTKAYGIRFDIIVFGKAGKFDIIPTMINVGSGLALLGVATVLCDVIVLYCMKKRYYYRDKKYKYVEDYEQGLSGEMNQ

[3] = molecular target: transferrin receptor protein 1 (Tfr1), endogenous in C3H10T1/2-derived adipocytes (mouse (endogenous in C3H10T1/2)) (UniProt Q62351); assay: as above

binding [1]: binds
binding [2]: binds
binding [3]: binds
B1: Musclin-BirA* (Musclin and BirA* fusion protein) (ligand, UniProt P61364 26-130)
chain: FSVDLASQEFGTASLQSPPTAREEKSATELSAKLLRLDDLVSLENDVFETKKKRSFSGFGSPLDRLSAGSVEHRGKQRKAVDHSKKRFGIPMDRIGRNRLSSSRG
